Results on seven molecules are retold here after article PMC11651612.

No constants are given. Whether binding was seen depends on the method and setting. Binding seen in cells or lysates may run through a third protein. These calls come from enrichment with a bait or labelling near it, and not all partners need be listed.

Assay [1] concerns the target T1, Cdc10-mCherry (C. neoformans) (UniProt J9VMT9).
T1 sequence: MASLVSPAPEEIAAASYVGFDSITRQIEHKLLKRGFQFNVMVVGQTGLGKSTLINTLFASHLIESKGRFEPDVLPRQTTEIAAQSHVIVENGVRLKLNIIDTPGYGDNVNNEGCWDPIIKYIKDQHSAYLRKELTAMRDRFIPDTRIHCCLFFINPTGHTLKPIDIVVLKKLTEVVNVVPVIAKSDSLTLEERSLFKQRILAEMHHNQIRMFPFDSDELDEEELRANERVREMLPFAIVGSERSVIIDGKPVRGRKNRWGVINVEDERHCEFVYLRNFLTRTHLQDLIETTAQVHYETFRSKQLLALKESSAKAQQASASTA
In words: affinity purification with mass spectrometry; mCherry-tagged septin captured from C. neoformans lysate on RFP-Trap agarose, 4 h at 4°C, washed with TBS with 2 M urea pH 7.5; GeLC-MS/MS; untagged H99 as negative control; hits logFC >2 and adjusted p <0.001 (text-named hits <0.05); exponential cultures at ~25°C or shifted to 37°C for 2 h; N = 5.

Assay [2] concerns the target T2, Cdc3-mCherry (C. neoformans) (UniProt J9VUF2).
T2 sequence: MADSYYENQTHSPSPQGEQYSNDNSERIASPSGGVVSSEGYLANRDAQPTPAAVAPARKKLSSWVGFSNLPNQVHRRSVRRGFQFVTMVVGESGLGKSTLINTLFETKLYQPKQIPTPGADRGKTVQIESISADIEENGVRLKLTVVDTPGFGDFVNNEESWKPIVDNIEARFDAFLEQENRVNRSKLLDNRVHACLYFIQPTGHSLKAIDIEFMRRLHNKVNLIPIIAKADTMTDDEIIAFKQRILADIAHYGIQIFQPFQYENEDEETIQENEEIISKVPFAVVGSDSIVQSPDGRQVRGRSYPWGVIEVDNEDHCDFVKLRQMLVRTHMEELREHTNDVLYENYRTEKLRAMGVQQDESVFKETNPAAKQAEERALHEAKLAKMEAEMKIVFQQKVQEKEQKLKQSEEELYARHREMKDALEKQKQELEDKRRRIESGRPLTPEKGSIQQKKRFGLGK
Described as above.

B1: Short-chain dehydrogenase (protein, UniProt J9VI22 1-292)
chain: MPAARLRLEHKVAIITGAGSGIGLETALQFAAEGARLVISDINLPNVEAAAQLINAHFPECDAVAIKCDVGKEEEVKAMVDKAVEVFGRLDVLFNNAGIMHPDDDNAITTEEKIWDLTQNINVKGVWFGCKYGILAMKKNKPDPSKGLGIGGSIINVASFVAIMGAATPQLAYTASKGAVLAMTRELAMVHAREGIRFNSLCPGPIRTPLLMDFLNTPEKLNRRMVHVPMGRFGEAVEQAKAVVFLASDDSSFINGTDFLVDGGLHKCYVTPEGEPALPGPTGLLATLSKTA
B1: the binding result in assay [1] and in assay [2] was “binds” in each case.

B2: RNA polymerase-associated protein LEO1 (protein, UniProt J9VTL1 1-468)
chain: MSDSESAADLFGDEEGSRRNSPAPQKSPSPQLSHKSDDEEQDVGDLFGDDAEEDEVQIGRRSTGTSASGSRSPHPLEYVEEDEAVPQRQNVVTLPIPQWPHMTATDGKVWQMKFPAYVNLDPKPFDPDLYRATQEEEPIDGATDPIAAKSMMIGVKNTIRWRWVTGPDGEPVRQSNARMLRWSDGSVTLQLGDDFYDVAPSQGATLARPSDPKPAPKRDDRPATNSSTTFLCVGAAAERVLVTERPIAGQLSLLPTSMTSKTYLELVKHVGQQHTKHSKMKMLEETQDEEALQALLLKSAPNREAIKGAKSTVRRTSSKTGLGKGKKTRKIGYSDSESDVGFSADERRPRRKPERESIEYDDDDGFIVSDSDEDDYPSKKKKGKGKNKKRKGFTDDEESLDEMEEAERRIEERERERKRARKDKGGPSKKSREYVDTEDEEDGKEAGDDDAEGEEEMDMDMDVESEED
In the case of B2, the binding result in assay [1] and in assay [2] was “binds” each time.

B3: Importin N-terminal domain-containing protein (protein, UniProt J9VJ34 1-1050)
chain: MDQQVLQCLQSTLSPEENVRKHAEEQLKQLFAVPEGGLSLARLLNAQEVSLFQRQSAGVLLQQYVNQHWTPASAQFQHPITPIEVKAQIRPLVFGGLSDPERKIRLASAFSLSAIARYDWPDDYPDLLPQLVNLLTSGSSDSVHGGMRVISDFVRNELSEDQLLPVVQDLLPAVLNILANPQAHSPSTRASTVHVFRQVVRMLETVREEQPRAVKSALESLGAVWLDAFSQLLSQDAGAEVQQNWESLSIRIEIFRTLSLFQSAFPRIIAPNVPSFIRLAILNLQSLLPLFTAFYLSTNDDAPEPPSPTSDSGAGMTDPKIDITDLASAIFDYLTPTVRTKGAAGVLVEGQDESARATEVLENLVRVVQEFTQITRENAEEWMEDTNAFVIDEDEETEEYSARTSGYDLIGSVMDKWTRPVGAILQNLTNTRVQESASAKQSGSPDWWKPLESVLAMLGGISDDIRNALEEDLGKKRSPTIDVSYLFDQVIPGLLGQSEAPFLQGRAFVFASQFSSFLPQTLVTQYLNAAVSALESPEVSVPVKISAVKTIKNFCRHVDTAILQPQTGKVLSLLLPLLSQAERETLYLLLETIRAITSIDDSILSTQNTGAVVEQMFDVWLRCADDPVATSIIEENIESLTLFPDPGVLTALVHTLAPKLAAAISTPVTDETVHIPGEAVQLANSMIRMRGGPLETELVATITMAVMEILRTTDDMDVIQHGMIHLTLVVRKDCQKLLRWQDVEGNNGIASIFGLLGRFLAPTFSESGGIFVGELIMHLFRKAGEAIGPVLPDLLRAVVTRLATATMPSFTQTLVLPFAYLFSTEHTANTINLLSQFSIPVPPGGEKRALDLVLSAWCDTSDTITGSWNIRVSDMGMSKLFVLSDQRLREVIVKGDLIISEANRNTIMTRSRTRQTPNQYTQIPFPLKALKLILKDVQSEPTSAKKTTSGLDIEDDDGDEEWDDDDLLGGGFNVGEFDYLSSWLDNNGAESDAQDDDEDLKSDPLAQIDLGQYLTDVLRHAYASNSNGMHEMVEGLSDEEKGILRGVLTL
As for B3, the binding result in assay [1] and in assay [2] was “binds” throughout.

B4: Splicing factor 3B subunit 2 (protein, UniProt J9VQG8 1-597)
chain: MPTPSTTTNGTGPHTTVTAPIKSSAAKSRGALKRLKAKARGGGGGGKGSSRMSETPTDTESEAESTTSTVDLSTLEIDPSDPRFTVFSNIFAHFQGGEGAEIPEQFTGPAKGEVYYSDEEDDDQEAKENAVKRAQEQEGLTRRQRRQAAKLTVAELKQLVDRPEVVDWYDCDARDPRLLVNLKSHRNTVPVPSHWNAKRDYLAGKRGIEKPPYLLPSWIAETGIGEQRDAVKAKEAEQSLRQKTRERVQPKMGKIDIDYQKLHDAFFKYQGKPSMSKFGEAYYEGKELETDLRTKKPGELSQELIEALSIPPLAPPPWLIAMQRFGPPPSYPNLRIRGLNAPIPPGAQWGFHPGGWGKPPMDDFNRPLYGDVFGVLQGAEIAHQNEVDRSLWGEIEHVEEESEEESEEEEEEEEEEEAEKPAANVPADGLETPSGLATPSGYHSVVSTVPGGLETPDFMDLRKNTKAQAEDVPSGPKELYQVIPERETTSRGLMGSSTAYDIGAVGKGSGLAVLGGEDSGRKRKAGDVDISVDTDEELTQEQLRAKYEASRAQQNRVYVPGADADRSGFEDVMSGEMKKRARKDDKRGKEKAEKFKF
As to B4, the binding result in assay [1] and in assay [2] was “binds” throughout.

B5: eIF-2B GDP-GTP exchange factor subunit alpha (protein, UniProt J9W1B2 1-388)
chain: MQSVASPQEYSDTPNQSSTSARTPSPRAFDVVTAYRRALEDDKVPHPIAAILALVELMEASTASTVTGLASELTVGRQVLINTQASLGVRAGCQLWERFFALFPGVGEDFPAYKRSLISQGRSFCAITAPQCREKIAELAVGFLRDDCVILTHSYSRTVIQTILRAHKQHKRIRVYVTEARPGCLGMKTHQFLTANGIPCTVVLDSAVAYVMERVDMVLVGSEAVVESGGLVSSVGTYQVALVAKVMQKPFYALAESYKFLRHYPLSQTDLPIPASSDRPSIPLEFPSTIPDTQSIPGFLSRGSSLTPQSRSPQAPATPPHAVIGGGGGGGADGGKRYERMEMTKEMEEINPMVDVTTPDLIDFIITDLGAPLSPTSVSQYLVAQFSS
With B5, the binding entry in assay [1] and in assay [2] was “binds” in each case.

B6: DNA replication licensing factor MCM2 (protein, UniProt J9VT26 1-932)
chain: MPSPSVPPSSQQRPKRPRSRSRSPTAGPSGLRSSPPPSSLPPSSLPPSSPPIPFSDFGDEQDVADDEAEVRRIGRENGDDDEDEEGEDLFNDDMMADYEENAGLDTYSQADLDDRSSVAGPTRAERLAAERAMDLRDRGVSGRRAGRRDHMPAFLQSDDDEAEAFGDDPLAGINVRRRRRQYDERMDEDDVEEDDEEMSLEHLGDVKAASIAEWVSRDAVRRAISKHFKSFLMTYVDAQGNSVYGQRIKHLGEVNSESLEVSYIHLANTRPILAYFLANSPQPMLELFDQVALDAILLYYPSYDRIHSEIHVRITELPTSLSLRDLRQSNLNCLVRVSGVVTRRSGVFPQLKYVKFDCQKCGATLGPFYQDTNKELKISFCQGCESRGPFVVNSEQTVYRNYQKMTLQESPGSVPAGRLPRHREVILLWDLIDMAKPGEEVEITGIYRNNFDASLNTKNGFPVFSTVLEANHINKKEDLFAAVRLTEEDEKMIRTMARDDRIAKRIVKSIAPSIYGHDDIKTAIALSLFGGVGKDINRKHRIRGDINVLLLGDPGTAKSQFLKYVEKTANRAVFTTGQGASAVGLTASVRKDPITKEWTLEGGALVLADKGHCLIDEFDKMNDADRTSIHEAMEQQSISISKAGIITTLQARCAIIAAANPIRGRYNPTIPFQQNVELTEPILSRFDVLCVVKDAADPVQDEMLAQFVVGSHLRSHPLFDKEYEEANVSTVVDADIIPQDVLRKYIMYAKEHFRPQLHQLDQDKLARLYADLRRESLATGSFPITVRHLESMIRMAEASAKMHLREYVRTDDIDLAIQVAVGSFVNAQKMSIKKTLERGFRKYVHQATDHEELLSFLLGGIVKEKVQLYRHSHGENPTRVFVKVSQLEGRAKELEIYDVQPFLRSRLFSTNGYKVVDHDGARNIEKTFTVGA
As for B6, the binding result in assay [1] and in assay [2] was “binds” each time.

B7: Septin ring protein CDC12 (protein, UniProt J9VU34 1-380)
chain: MSDGIGIANLPNQRHKITSQRGAHFTIMVVGQSGLGKTTLINTLFATEICSPRNYRQRFAKQLDKTTEVEILKADLEERGFNIKLTVIDTPGFGDYVNNRDSWGPIVDFIDDQHESYMRQEQQPFRKEKQDLRIHACLYFIKPTGTTLKPLDVEIMKKLGTRVNLIPVIAKADTMTPEDLHNFKTIVRETVIAQNIAVYTPPVDLDDEAAAEHARAMQAVMPFSIIGSTQDVTTPDGRVVKGREYLWGVAEVENEDHCDFKKLRSLLIRTYMLDLITSTEEKHYEAYRLAQMETRKFGEPKVKKLDNPKYREEEETLRKRFTEQVKLEEARFRQWEQHLIAERDRLNKDLEQAHSAIKALEAELDQVAAYHRQGGTVGRR
As for B7, the binding result in assay [1] and in assay [2] was “binds” throughout.
